Experimental data reported in ChEMBL document CHEMBL5444388, “Affinity Phenotypic Cellular Literature for EUbOPEN Chemogenomic Library” (2024).
The source gives many values for each of these; only a part stands here.

Sequences of proteins named here, by UniProt entry; tags and fusion partners are left off. A change or cut given only in a name is not applied to a line headed by its entry.
UniProt Q02224: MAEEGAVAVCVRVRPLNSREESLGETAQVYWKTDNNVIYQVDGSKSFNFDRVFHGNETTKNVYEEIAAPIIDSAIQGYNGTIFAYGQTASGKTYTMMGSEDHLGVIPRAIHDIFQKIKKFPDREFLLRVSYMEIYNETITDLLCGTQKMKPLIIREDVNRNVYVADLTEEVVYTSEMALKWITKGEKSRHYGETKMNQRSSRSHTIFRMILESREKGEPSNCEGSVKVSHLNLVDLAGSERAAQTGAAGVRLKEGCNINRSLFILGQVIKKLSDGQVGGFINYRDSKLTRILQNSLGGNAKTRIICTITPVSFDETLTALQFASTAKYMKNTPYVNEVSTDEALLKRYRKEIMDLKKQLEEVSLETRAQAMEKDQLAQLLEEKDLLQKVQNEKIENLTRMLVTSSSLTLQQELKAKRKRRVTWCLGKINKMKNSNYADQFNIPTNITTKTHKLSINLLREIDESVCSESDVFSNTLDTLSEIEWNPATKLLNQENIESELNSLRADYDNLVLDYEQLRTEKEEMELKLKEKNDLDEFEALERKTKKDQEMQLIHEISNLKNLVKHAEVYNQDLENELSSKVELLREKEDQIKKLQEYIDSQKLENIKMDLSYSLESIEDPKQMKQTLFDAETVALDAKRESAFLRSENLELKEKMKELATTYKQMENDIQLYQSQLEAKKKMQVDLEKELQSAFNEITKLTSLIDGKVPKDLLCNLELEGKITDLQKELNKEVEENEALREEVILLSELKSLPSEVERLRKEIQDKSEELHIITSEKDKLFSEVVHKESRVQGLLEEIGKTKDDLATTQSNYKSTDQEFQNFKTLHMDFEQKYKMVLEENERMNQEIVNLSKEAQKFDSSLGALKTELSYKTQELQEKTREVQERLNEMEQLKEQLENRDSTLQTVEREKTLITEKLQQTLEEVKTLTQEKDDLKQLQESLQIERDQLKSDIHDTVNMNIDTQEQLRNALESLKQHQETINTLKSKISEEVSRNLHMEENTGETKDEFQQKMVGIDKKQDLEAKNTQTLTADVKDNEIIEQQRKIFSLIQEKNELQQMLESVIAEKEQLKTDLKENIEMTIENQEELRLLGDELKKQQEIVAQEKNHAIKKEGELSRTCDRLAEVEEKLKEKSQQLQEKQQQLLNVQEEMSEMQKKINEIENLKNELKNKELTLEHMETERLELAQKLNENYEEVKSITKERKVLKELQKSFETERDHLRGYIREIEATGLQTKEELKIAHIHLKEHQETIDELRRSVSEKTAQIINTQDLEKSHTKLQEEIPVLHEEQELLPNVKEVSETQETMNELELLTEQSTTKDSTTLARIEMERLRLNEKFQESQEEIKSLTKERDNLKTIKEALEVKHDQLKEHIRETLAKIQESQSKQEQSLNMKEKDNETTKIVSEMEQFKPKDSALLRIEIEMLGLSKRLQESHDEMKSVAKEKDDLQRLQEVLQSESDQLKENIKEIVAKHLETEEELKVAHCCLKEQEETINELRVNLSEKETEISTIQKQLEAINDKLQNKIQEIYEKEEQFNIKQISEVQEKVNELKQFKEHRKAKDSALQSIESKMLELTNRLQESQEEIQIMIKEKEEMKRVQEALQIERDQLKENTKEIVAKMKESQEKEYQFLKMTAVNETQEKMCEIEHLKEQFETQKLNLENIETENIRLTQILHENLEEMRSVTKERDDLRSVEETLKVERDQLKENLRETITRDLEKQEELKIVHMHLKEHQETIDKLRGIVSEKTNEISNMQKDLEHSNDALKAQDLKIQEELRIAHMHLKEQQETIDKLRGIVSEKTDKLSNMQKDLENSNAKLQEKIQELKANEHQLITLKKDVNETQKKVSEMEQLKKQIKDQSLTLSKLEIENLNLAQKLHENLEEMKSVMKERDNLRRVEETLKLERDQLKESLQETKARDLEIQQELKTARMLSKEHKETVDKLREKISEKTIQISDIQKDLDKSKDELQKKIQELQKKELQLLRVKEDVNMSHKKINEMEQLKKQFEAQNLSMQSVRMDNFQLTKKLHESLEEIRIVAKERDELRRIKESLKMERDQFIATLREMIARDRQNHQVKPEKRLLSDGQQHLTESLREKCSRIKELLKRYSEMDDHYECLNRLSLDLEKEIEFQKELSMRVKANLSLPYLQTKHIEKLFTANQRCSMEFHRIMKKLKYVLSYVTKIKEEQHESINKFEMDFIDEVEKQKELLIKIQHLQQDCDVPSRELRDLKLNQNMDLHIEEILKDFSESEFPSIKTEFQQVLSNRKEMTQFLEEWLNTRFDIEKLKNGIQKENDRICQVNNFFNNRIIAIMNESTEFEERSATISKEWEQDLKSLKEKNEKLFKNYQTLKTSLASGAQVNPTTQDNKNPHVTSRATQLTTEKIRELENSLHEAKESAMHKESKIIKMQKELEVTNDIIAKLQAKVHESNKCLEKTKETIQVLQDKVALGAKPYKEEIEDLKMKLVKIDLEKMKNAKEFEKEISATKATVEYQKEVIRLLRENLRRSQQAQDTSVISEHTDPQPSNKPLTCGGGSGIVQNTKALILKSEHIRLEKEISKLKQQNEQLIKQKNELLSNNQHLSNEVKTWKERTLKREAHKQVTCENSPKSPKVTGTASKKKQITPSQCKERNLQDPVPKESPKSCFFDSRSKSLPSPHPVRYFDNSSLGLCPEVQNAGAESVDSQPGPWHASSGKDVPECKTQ

Tests used:
Type in all cases: functional, cell-based
Parameters in all cases: recommended concentration 100 nM
[1] = target: Centromere-associated protein E (Homo sapiens) (UniProt Q02224); assay: Affinity Phenotypic Cellular interaction: (Cell-growth inhibition assays (growth inhibitory effect colon cancer cell line A7)) EUB0000734a CENPE; conditions: M2A7, Affinity Phenotypic Cellular Source Knowledge https://pubmed.ncbi.nlm.nih.gov/20167803/
[2] = target: Centromere-associated protein E (Homo sapiens) (UniProt Q02224); assay: Affinity Phenotypic Cellular interaction: (Cell-growth inhibition assays (growth inhibitory effect colon cancer cell line KHOS-240S)) EUB0000734a CENPE; conditions: Affinity Phenotypic Cellular Source Knowledge https://pubmed.ncbi.nlm.nih.gov/20167803/
[3] = target: Centromere-associated protein E (Homo sapiens) (UniProt Q02224); assay: Affinity Phenotypic Cellular interaction: (Cell-growth inhibition assays (growth inhibitory effect colon cancer cell line ARH-77)) EUB0000734a CENPE; conditions: Affinity Phenotypic Cellular Source Knowledge https://pubmed.ncbi.nlm.nih.gov/20167803/
[4] = target: Centromere-associated protein E (Homo sapiens) (UniProt Q02224); assay: Affinity Phenotypic Cellular interaction: (Cell-growth inhibition assays (growth inhibitory effect colon cancer cell line BE2-C)) EUB0000734a CENPE; conditions: BE(2)-C, Affinity Phenotypic Cellular Source Knowledge https://pubmed.ncbi.nlm.nih.gov/20167803/
[5] = target: Centromere-associated protein E (Homo sapiens) (UniProt Q02224); assay: Affinity Phenotypic Cellular interaction: (Cell-growth inhibition assays (growth inhibitory effect colon cancer cell line AN3CA)) EUB0000734a CENPE; conditions: AN3-CA, Affinity Phenotypic Cellular Source Knowledge https://pubmed.ncbi.nlm.nih.gov/20167803/
[6] = target: Centromere-associated protein E (Homo sapiens) (UniProt Q02224); assay: Affinity Phenotypic Cellular interaction: (Cell-growth inhibition assays (growth inhibitory effect lymphoma cancer cell line MJ)) EUB0000734a CENPE; conditions: Affinity Phenotypic Cellular Source Knowledge https://pubmed.ncbi.nlm.nih.gov/20167803/
[7] = target: Centromere-associated protein E (Homo sapiens) (UniProt Q02224); assay: Affinity Phenotypic Cellular interaction: (Cell-growth inhibition assays (growth inhibitory effect colon cancer cell line NCI-N87)) EUB0000734a CENPE; conditions: Affinity Phenotypic Cellular Source Knowledge https://pubmed.ncbi.nlm.nih.gov/20167803/
[8] = target: Centromere-associated protein E (Homo sapiens) (UniProt Q02224); assay: Affinity Phenotypic Cellular interaction: (Cell-growth inhibition assays (growth inhibitory effect colon cancer cell line SW948)) EUB0000734a CENPE; conditions: Affinity Phenotypic Cellular Source Knowledge https://pubmed.ncbi.nlm.nih.gov/20167803/
[9] = target: Centromere-associated protein E (Homo sapiens) (UniProt Q02224); assay: Affinity Phenotypic Cellular interaction: (Cell-growth inhibition assays (growth inhibitory effect colon cancer cell line NCI-H630)) EUB0000734a CENPE; conditions: Affinity Phenotypic Cellular Source Knowledge https://pubmed.ncbi.nlm.nih.gov/20167803/
[10] = target: Centromere-associated protein E (Homo sapiens) (UniProt Q02224); assay: Affinity Phenotypic Cellular interaction: (Cell-growth inhibition assays (growth inhibitory effect colon cancer cell line CGTH-W-1)) EUB0000734a CENPE; conditions: Affinity Phenotypic Cellular Source Knowledge https://pubmed.ncbi.nlm.nih.gov/20167803/
[11] = target: Centromere-associated protein E (Homo sapiens) (UniProt Q02224); assay: Affinity Phenotypic Cellular interaction: (Cell-growth inhibition assays (growth inhibitory effect squamous cancer cell line SCC-13)) EUB0000734a CENPE; conditions: Affinity Phenotypic Cellular Source Knowledge https://pubmed.ncbi.nlm.nih.gov/20167803/
[12] = target: Centromere-associated protein E (Homo sapiens) (UniProt Q02224); assay: Affinity Phenotypic Cellular interaction: (Cell-growth inhibition assays (growth inhibitory effect colon cancer cell line COLO-704)) EUB0000734a CENPE; conditions: Affinity Phenotypic Cellular Source Knowledge https://pubmed.ncbi.nlm.nih.gov/20167803/
[13] = target: Centromere-associated protein E (Homo sapiens) (UniProt Q02224); assay: Affinity Phenotypic Cellular interaction: (Cell-growth inhibition assays (growth inhibitory effect colon cancer cell line HT-1080)) EUB0000734a CENPE; conditions: Affinity Phenotypic Cellular Source Knowledge https://pubmed.ncbi.nlm.nih.gov/20167803/
[14] = target: Centromere-associated protein E (Homo sapiens) (UniProt Q02224); assay: Affinity Phenotypic Cellular interaction: (Cell-growth inhibition assays (growth inhibitory effect colon cancer cell line A375)) EUB0000734a CENPE; conditions: A-375, Affinity Phenotypic Cellular Source Knowledge https://pubmed.ncbi.nlm.nih.gov/20167803/
[15] = target: Centromere-associated protein E (Homo sapiens) (UniProt Q02224); assay: Affinity Phenotypic Cellular interaction: (Cell-growth inhibition assays (growth inhibitory effect colon cancer cell line A204)) EUB0000734a CENPE; conditions: Affinity Phenotypic Cellular Source Knowledge https://pubmed.ncbi.nlm.nih.gov/20167803/
[16] = target: Centromere-associated protein E (Homo sapiens) (UniProt Q02224); assay: Affinity Phenotypic Cellular interaction: (Cell-growth inhibition assays (growth inhibitory effect colon cancer cell line CHL-1)) EUB0000734a CENPE; conditions: Affinity Phenotypic Cellular Source Knowledge https://pubmed.ncbi.nlm.nih.gov/20167803/
[17] = target: Centromere-associated protein E (Homo sapiens) (UniProt Q02224); assay: Affinity Phenotypic Cellular interaction: (Cell-growth inhibition assays (growth inhibitory effect colon cancer cell line RPMI 8226)) EUB0000734a CENPE; conditions: Affinity Phenotypic Cellular Source Knowledge https://pubmed.ncbi.nlm.nih.gov/20167803/
[18] = target: Centromere-associated protein E (Homo sapiens) (UniProt Q02224); assay: Affinity Phenotypic Cellular interaction: (Cell-growth inhibition assays (growth inhibitory effect colon cancer cell line SNU-387)) EUB0000734a CENPE; conditions: Affinity Phenotypic Cellular Source Knowledge https://pubmed.ncbi.nlm.nih.gov/20167803/
[19] = target: Centromere-associated protein E (Homo sapiens) (UniProt Q02224); assay: Affinity Phenotypic Cellular interaction: (Cell-growth inhibition assays (growth inhibitory effect colon cancer cell line BT-474)) EUB0000734a CENPE; conditions: Affinity Phenotypic Cellular Source Knowledge https://pubmed.ncbi.nlm.nih.gov/20167803/
[20] = target: Centromere-associated protein E (Homo sapiens) (UniProt Q02224); assay: Affinity Phenotypic Cellular interaction: (Cell-growth inhibition assays (growth inhibitory effect colon cancer cell line HuP-T4)) EUB0000734a CENPE; conditions: Affinity Phenotypic Cellular Source Knowledge https://pubmed.ncbi.nlm.nih.gov/20167803/
[21] = target: Centromere-associated protein E (Homo sapiens) (UniProt Q02224); assay: Affinity Phenotypic Cellular interaction: (Cell-growth inhibition assays (growth inhibitory effect colon cancer cell line SH-4)) EUB0000734a CENPE; conditions: Affinity Phenotypic Cellular Source Knowledge https://pubmed.ncbi.nlm.nih.gov/20167803/
[22] = target: Centromere-associated protein E (Homo sapiens) (UniProt Q02224); assay: Affinity Phenotypic Cellular interaction: (Cell-growth inhibition assays (growth inhibitory effect colon cancer cell line SNU-16)) EUB0000734a CENPE; conditions: Affinity Phenotypic Cellular Source Knowledge https://pubmed.ncbi.nlm.nih.gov/20167803/
[23] = target: Centromere-associated protein E (Homo sapiens) (UniProt Q02224); assay: Affinity Phenotypic Cellular interaction: (Cell-growth inhibition assays (growth inhibitory effect colon cancer cell line MDA-MB-231)) EUB0000734a CENPE; conditions: Affinity Phenotypic Cellular Source Knowledge https://pubmed.ncbi.nlm.nih.gov/20167803/
[24] = target: Centromere-associated protein E (Homo sapiens) (UniProt Q02224); assay: Affinity Phenotypic Cellular interaction: (Cell-growth inhibition assays (growth inhibitory effect colon cancer cell line D283Med)) EUB0000734a CENPE; conditions: D283 Med, Affinity Phenotypic Cellular Source Knowledge https://pubmed.ncbi.nlm.nih.gov/20167803/
[25] = target: Centromere-associated protein E (Homo sapiens) (UniProt Q02224); assay: Affinity Phenotypic Cellular interaction: (Cell-growth inhibition assays (growth inhibitory effect colon cancer cell line HuT78)) EUB0000734a CENPE; conditions: Affinity Phenotypic Cellular Source Knowledge https://pubmed.ncbi.nlm.nih.gov/20167803/
[26] = target: Centromere-associated protein E (Homo sapiens) (UniProt Q02224); assay: Affinity Phenotypic Cellular interaction: (Cell-growth inhibition assays (growth inhibitory effect colon cancer cell line HCC70)) EUB0000734a CENPE; conditions: Affinity Phenotypic Cellular Source Knowledge https://pubmed.ncbi.nlm.nih.gov/20167803/
[27] = target: Centromere-associated protein E (Homo sapiens) (UniProt Q02224); assay: Affinity Phenotypic Cellular interaction: (Cell-growth inhibition assays (growth inhibitory effect colon cancer cell line T84)) EUB0000734a CENPE; conditions: Affinity Phenotypic Cellular Source Knowledge https://pubmed.ncbi.nlm.nih.gov/20167803/
[28] = target: Centromere-associated protein E (Homo sapiens) (UniProt Q02224); assay: Affinity Phenotypic Cellular interaction: (Cell-growth inhibition assays (growth inhibitory effect colon cancer cell line SK-N-AS)) EUB0000734a CENPE; conditions: Affinity Phenotypic Cellular Source Knowledge https://pubmed.ncbi.nlm.nih.gov/20167803/
[29] = target: Centromere-associated protein E (Homo sapiens) (UniProt Q02224); assay: Affinity Phenotypic Cellular interaction: (Cell-growth inhibition assays (growth inhibitory effect colon cancer cell line SK-LMS-1)) EUB0000734a CENPE; conditions: Affinity Phenotypic Cellular Source Knowledge https://pubmed.ncbi.nlm.nih.gov/20167803/
[30] = target: Centromere-associated protein E (Homo sapiens) (UniProt Q02224); assay: Affinity Phenotypic Cellular interaction: (Cell-growth inhibition assays (growth inhibitory effect colon cancer cell line NCI-H2122)) EUB0000734a CENPE; conditions: Affinity Phenotypic Cellular Source Knowledge https://pubmed.ncbi.nlm.nih.gov/20167803/
[31] = target: Centromere-associated protein E (Homo sapiens) (UniProt Q02224); assay: Affinity Phenotypic Cellular interaction: (Cell-growth inhibition assays (growth inhibitory effect myeloma cancer cell line SKO-007)) EUB0000734a CENPE; conditions: SK-007, Affinity Phenotypic Cellular Source Knowledge https://pubmed.ncbi.nlm.nih.gov/20167803/
[32] = target: Centromere-associated protein E (Homo sapiens) (UniProt Q02224); assay: Affinity Phenotypic Cellular interaction: (Cell-growth inhibition assays (growth inhibitory effect colon cancer cell line THP-1)) EUB0000734a CENPE; conditions: Affinity Phenotypic Cellular Source Knowledge https://pubmed.ncbi.nlm.nih.gov/20167803/
[33] = target: Centromere-associated protein E (Homo sapiens) (UniProt Q02224); assay: Affinity Phenotypic Cellular interaction: (Cell-growth inhibition assays (growth inhibitory effect colon cancer cell line SJRH30)) EUB0000734a CENPE; conditions: Affinity Phenotypic Cellular Source Knowledge https://pubmed.ncbi.nlm.nih.gov/20167803/
[34] = target: Centromere-associated protein E (Homo sapiens) (UniProt Q02224); assay: Affinity Phenotypic Cellular interaction: (Cell-growth inhibition assays (growth inhibitory effect colon cancer cell line JEG-3)) EUB0000734a CENPE; conditions: Affinity Phenotypic Cellular Source Knowledge https://pubmed.ncbi.nlm.nih.gov/20167803/
[35] = target: Centromere-associated protein E (Homo sapiens) (UniProt Q02224); assay: Affinity Phenotypic Cellular interaction: (Cell-growth inhibition assays (growth inhibitory effect colon cancer cell line MC/CAR)) EUB0000734a CENPE; conditions: Affinity Phenotypic Cellular Source Knowledge https://pubmed.ncbi.nlm.nih.gov/20167803/
[36] = target: Centromere-associated protein E (Homo sapiens) (UniProt Q02224); assay: Affinity Phenotypic Cellular interaction: (Cell-growth inhibition assays (growth inhibitory effect colon cancer cell line AGS)) EUB0000734a CENPE; conditions: Affinity Phenotypic Cellular Source Knowledge https://pubmed.ncbi.nlm.nih.gov/20167803/
[37] = target: Centromere-associated protein E (Homo sapiens) (UniProt Q02224); assay: Affinity Phenotypic Cellular interaction: (Cell-growth inhibition assays (growth inhibitory effect colon cancer cell line C-33A)) EUB0000734a CENPE; conditions: Affinity Phenotypic Cellular Source Knowledge https://pubmed.ncbi.nlm.nih.gov/20167803/
[38] = target: Centromere-associated protein E (Homo sapiens) (UniProt Q02224); assay: Affinity Phenotypic Cellular interaction: (Cell-growth inhibition assays (growth inhibitory effect colon cancer cell line 647-V)) EUB0000734a CENPE; conditions: Affinity Phenotypic Cellular Source Knowledge https://pubmed.ncbi.nlm.nih.gov/20167803/

CC(C)Oc1ccc(C(=O)N[C@H](CNC(=O)CN(C)C)Cc2ccc(-c3cn4cccc([C@H](C)O)c4n3)cc2)cc1Cl
GIC50 [1]: 40 nM
GIC50 [2]: 37 nM
GIC50 [3]: 34 nM
GIC50 [4]: 93 nM
GIC50 [5]: 23 nM
GIC50 [6]: 50 nM
GIC50 [7]: 29 nM
GIC50 [8]: 98 nM
GIC50 [9]: 47 nM
GIC50 [10]: 30 nM
GIC50 [11]: 58 nM
GIC50 [12]: 69 nM
GIC50 [13]: 24 nM
GIC50 [14]: 26 nM
GIC50 [15]: 18 nM
GIC50 [16]: 24 nM
GIC50 [17]: 27 nM
GIC50 [18]: 32 nM
GIC50 [19]: 110 nM
GIC50 [20]: 158 nM
GIC50 [21]: 44 nM
GIC50 [22]: 18 nM
GIC50 [23]: 5.01 µM
GIC50 [24]: 28 nM
GIC50 [25]: 40 nM
GIC50 [26]: 24 nM
GIC50 [27]: 75 nM
GIC50 [28]: 38 nM
GIC50 [29]: 30 nM
GIC50 [30]: 29 nM
GIC50 [31]: 60 nM
GIC50 [32]: 12 nM
GIC50 [33]: 26 nM
GIC50 [34]: 25 nM
GIC50 [35]: 86 nM
GIC50 [36]: 29 nM
GIC50 [37]: 47 nM
GIC50 [38]: 72 nM
